The values below come from the supplement of paper PMC10735217.

Counter-ions that a name gives are not always drawn. The list shows a part of the results. Repeats in this data set agree poorly, so a single value says little.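 In a drug-repurposing library screen, luminescence reads luciferase driven by eight TEAD-binding elements, stably integrated into human kidney-derived cells. Compounds scoring over five robust Z scores above the plate mean are called hits.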

This test concerns HEK293A TEAD-LUC reporter. The experiment in a line: TEAD-luciferase reporter activity (YAP activation), robust Z score vs plate; higher = stronger YAP/TEAD activation. Particulars: 24 h. For orientation: Reporter assays use an easily measured gene product as a stand-in for the process of interest.

For the compound `OC[C@H]1O[C@@H](n2cnc3c2NC=NC[C@H]3O)C[C@@H]1O` [pentostatin, Yamasa], under “compound concentration: 2 uM”, the TEAD-luciferase reporter activity is inactive: 0.16.

On to `OC[C@H]1O[C@@H](n2cnc3c2NC=NC[C@H]3O)C[C@@H]1O` [pentostatin], for which the TEAD-luciferase reporter activity is inactive: -0.108 (compound concentration: 200 nM), inactive: -0.298 (compound concentration: 2 uM) and inactive: -1.11 (compound concentration: 10 uM).

Consider `COc1cccc([C@H]2O[C@H](CC(=O)N3CCC(CC(=O)O)CC3)C(=O)N(CC(C)(C)CO)c3ccc(Cl)cc32)c1OC`, for which the TEAD-luciferase reporter activity is inactive: 3.07 (compound concentration: 200 nM) and inactive: 0.0148 (compound concentration: 10 uM).

For the compound `CCCN1CCN(c2ccc(C(=O)NC3(C(=O)NCC#N)CCCCC3)cc2)CC1`, the TEAD-luciferase reporter activity (compound concentration: 200 nM) was inactive: -1.5 and the TEAD-luciferase reporter activity (compound concentration: 10 uM) is inactive: -0.935.

In the case of `CCCN1CCN(c2ccc(C(=O)NC3(C(=O)NCC#N)CCCCC3)cc2)CC1` [Balicatib], the TEAD-luciferase reporter activity (compound concentration: 2 uM) was inactive: -1.08.

Consider `Cc1cc(C=O)c(C)n1-c1ccc(OCC(=O)O)cc1`, for which the TEAD-luciferase reporter activity (compound concentration: 200 nM) is inactive: 2.51, the TEAD-luciferase reporter activity (compound concentration: 2 uM) is inactive: 0.644 and the TEAD-luciferase reporter activity (compound concentration: 10 uM) was inactive: 2.58.

Consider `Cc1ccc(C(=O)N2CCC(N3CCCC3=O)CC2)cc1`, for which the TEAD-luciferase reporter activity is inactive: -0.607 (compound concentration: 200 nM) and inactive: 1.14 (compound concentration: 10 uM).

Regarding `CC[C@@H]1C[C@H](N(Cc2cc(C(F)(F)F)cc(C(F)(F)F)c2)C(C)=O)c2cc(C(F)(F)F)ccc2N1C(=O)OC(C)C`, the TEAD-luciferase reporter activity is inactive: -0.965 (compound concentration: 200 nM), inactive: -1.3 (compound concentration: 2 uM) and inactive: 3.5 (compound concentration: 10 uM).

Regarding `O=c1[nH]nc2n1-c1ccccc1SC2`, the TEAD-luciferase reporter activity (compound concentration: 200 nM) was inactive: -0.562, the TEAD-luciferase reporter activity (compound concentration: 2 uM) is inactive: -0.965 and the TEAD-luciferase reporter activity (compound concentration: 10 uM) is inactive: -1.03.

With `O[C@](Cn1cncn1)(Cn1cnc(/C=C/c2ccc(OCC(F)(F)C(F)F)cc2)n1)c1ccc(F)cc1F`, the TEAD-luciferase reporter activity (compound concentration: 200 nM) was inactive: 0.771 and the TEAD-luciferase reporter activity (compound concentration: 10 uM) is inactive: 0.643.

In the case of `CC(C)n1nc(C(=O)NCCN2CCC(NC(=O)C34CC5CC(CC(C5)C3)C4)CC2)c2ccccc21`, the TEAD-luciferase reporter activity reads like this: (compound concentration: 200 nM) inactive: -0.993; (compound concentration: 2 uM) inactive: 0.00923; (compound concentration: 10 uM) inactive: 1.19.

Take `COc1ccc(Cc2sccc2O[C@@H]2O[C@H](CO)[C@@H](O)[C@H](O)[C@H]2O)cc1` [Atigliflozin]: the TEAD-luciferase reporter activity is inactive: -0.497 (compound concentration: 200 nM), inactive: -0.51 (compound concentration: 2 uM) and inactive: 2.23 (compound concentration: 10 uM).

`O=S(=O)(c1nc(-c2ccccc2)c(-c2ccc(Cl)c(Cl)c2)[nH]1)C(F)(F)C(F)F`: the TEAD-luciferase reporter activity runs as follows: (compound concentration: 200 nM) inactive: -0.87; (compound concentration: 2 uM) inactive: -0.352; (compound concentration: 10 uM) inactive: -0.06.

In the case of `CCOC(=O)Cc1cc(Cl)c(Oc2ccc(C(=O)NC(C)(C)C)cc2NS(=O)(=O)c2ccc(C3CC3)cc2Cl)cc1F`, the TEAD-luciferase reporter activity is, setting by setting: (compound concentration: 200 nM) inactive: -0.611; (compound concentration: 2 uM) inactive: -0.733; (compound concentration: 10 uM) inactive: 2.57.

Turning to `CCN(CC)CCO[C@H]1CC[C@@]2(C)C(=CC[C@@H]3[C@@H]2CC[C@]2(C)OCC[C@@H]32)C1`, the TEAD-luciferase reporter activity reads like this: (compound concentration: 200 nM) inactive: -1.04; (compound concentration: 2 uM) inactive: -0.704; (compound concentration: 10 uM) inactive: -1.41.

As for `CC[C@@]1(CO)CCCN2CCc3c([nH]c4ccccc34)[C@@H]21` [Vintoperol], the TEAD-luciferase reporter activity is inactive: -0.533 (compound concentration: 200 nM), inactive: 2.17 (compound concentration: 2 uM) and inactive: -0.163 (compound concentration: 10 uM).

As to `Cc1cc2ncc(C(=O)NC3CC3)cn2n1`, the TEAD-luciferase reporter activity (compound concentration: 200 nM) is inactive: -0.748 and the TEAD-luciferase reporter activity (compound concentration: 10 uM) is inactive: 1.

With `CC(C)(S)[C@@H](N)C(=O)O` [D-penicillamine], the TEAD-luciferase reporter activity (compound concentration: 2 uM) was inactive: -0.571.

As to `COc1ccccc1Oc1c(NS(=O)(=O)/C=C/c2ccccc2)nc(-c2ncccn2)nc1OC` [Nebentan potassium], the TEAD-luciferase reporter activity reads like this: (compound concentration: 200 nM) inactive: 0.687; (compound concentration: 2 uM) inactive: 0.0955; (compound concentration: 10 uM) inactive: -1.09.

`Cc1ccc2c(c1)c1c(n2CCc2ccc(C)nc2)CCN(C)C1` [Dimebon]: the TEAD-luciferase reporter activity (compound concentration: 2 uM) is inactive: -0.692.

On to `Cc1ccc2c(c1)c1c(n2CCc2ccc(C)nc2)CCN(C)C1`, for which the TEAD-luciferase reporter activity (compound concentration: 200 nM) is inactive: -0.562 and the TEAD-luciferase reporter activity (compound concentration: 10 uM) is active: 5.11.

Turning to `NC(CO)C(=O)NNCc1ccc(O)c(O)c1O` (configuration not stated) [Benserazide HCl], the TEAD-luciferase reporter activity was inactive: -0.675 (compound concentration: 200 nM), inactive: 4.54 (compound concentration: 2 uM) and inactive: -0.962 (compound concentration: 10 uM).

Regarding `Cc1ccccc1C(=O)N1CCC(n2c(=O)[nH]c3ccccc32)CC1`, the TEAD-luciferase reporter activity (compound concentration: 200 nM) is inactive: -0.997 and the TEAD-luciferase reporter activity (compound concentration: 10 uM) was inactive: -1.45.

Consider `O=S(=O)(c1nc(-c2ccc(F)cc2)c(-c2ccc(F)cc2)[nH]1)C(F)(F)C(F)F` [tiflamizole], for which the TEAD-luciferase reporter activity runs as follows: (compound concentration: 200 nM) inactive: 0.447; (compound concentration: 2 uM) inactive: 0.16; (compound concentration: 10 uM) inactive: 4.95.

For the compound `CC(C)(C)NCc1cc(C(C)(C)C)cc(-c2ccc(Cl)cc2)c1O`, the TEAD-luciferase reporter activity is inactive: -0.231 (compound concentration: 200 nM), inactive: -1.36 (compound concentration: 2 uM) and active: 6.72 (compound concentration: 10 uM).

For `CCOC(=O)Cc1cc(Cl)c(Oc2ccc(C(=O)NC(C)(C)C)cc2NS(=O)(=O)c2ccc(C#N)cc2)cc1F`, the TEAD-luciferase reporter activity is, setting by setting: (compound concentration: 200 nM) inactive: -0.904; (compound concentration: 2 uM) inactive: -0.3; (compound concentration: 10 uM) inactive: 1.25.

Consider `C/C(=N\NC(=O)c1ccc(C(=O)O)s1)c1csc(-c2ccc(Cl)c(Cl)c2)c1O`, for which the TEAD-luciferase reporter activity (compound concentration: 200 nM) is inactive: -0.848, the TEAD-luciferase reporter activity (compound concentration: 2 uM) is inactive: 0.238 and the TEAD-luciferase reporter activity (compound concentration: 10 uM) is inactive: 1.97.

With `CO/N=C(/N)c1ccc(-c2ccc(-c3ccc(/C(N)=N\OC)cc3)o2)cc1`, the TEAD-luciferase reporter activity (compound concentration: 2 uM) is inactive: 1.49.

For the compound `CO/N=C(/N)c1ccc(-c2ccc(-c3ccc(/C(N)=N\OC)cc3)o2)cc1` [pafuramidine], the TEAD-luciferase reporter activity (compound concentration: 200 nM) was inactive: 1.89 and the TEAD-luciferase reporter activity (compound concentration: 10 uM) is inactive: 3.84.

As for `O=S(=O)(O)CS(=O)(=O)O`, the TEAD-luciferase reporter activity runs as follows: (compound concentration: 200 nM) inactive: -0.0589; (compound concentration: 2 uM) inactive: -1.52; (compound concentration: 10 uM) inactive: 0.0595.

For the compound `CCCCCCCCCCC[C@@H](C[C@@H]1OC(=O)[C@H]1CCCCCC)OC(=O)[C@H](CC(C)C)NC=O` [Orlistat], the TEAD-luciferase reporter activity (compound concentration: 2 uM) was inactive: -0.693.

In the case of `CCCCCCCCCCC[C@@H](C[C@@H]1OC(=O)[C@H]1CCCCCC)OC(=O)[C@H](CC(C)C)NC=O`, the TEAD-luciferase reporter activity was inactive: -0.977 (compound concentration: 200 nM) and inactive: -0.665 (compound concentration: 10 uM).

Turning to `O=C(C(=O)N1CCN(C(=O)c2ccccc2)CC1)c1c[nH]c2c(-c3ncon3)ccc(F)c12` [analog of Temsavir], the TEAD-luciferase reporter activity is inactive: -1.86 (compound concentration: 200 nM), inactive: -1.48 (compound concentration: 2 uM) and inactive: -2.2 (compound concentration: 10 uM).

With `COC(=O)C1=C(C)NC(C)=C(C(=O)OC)C1C1=COCCO1`, the TEAD-luciferase reporter activity was inactive: -0.325 (compound concentration: 200 nM), inactive: 0.054 (compound concentration: 2 uM) and inactive: 1.63 (compound concentration: 10 uM).

Turning to `CCOc1ccc(-c2ccc(Cn3c(CC(C)(C)C(=O)O)c(SC(C)(C)C)c4cc(OCc5ccc(C)cn5)ccc43)cc2)cn1` [fiboflapon], the TEAD-luciferase reporter activity runs as follows: (compound concentration: 200 nM) inactive: -0.718; (compound concentration: 2 uM) inactive: -0.146; (compound concentration: 10 uM) inactive: -0.379.

In the case of `COc1ccc(Cl)c(Nc2nc3ccccc3nc2NS(=O)(=O)c2cccc(NC(=O)C(C)(C)N)c2)c1`, the TEAD-luciferase reporter activity is inactive: -0.273 (compound concentration: 200 nM) and inactive: -0.0641 (compound concentration: 10 uM).

For `COc1ccc(Cl)c(Nc2nc3ccccc3nc2NS(=O)(=O)c2cccc(NC(=O)C(C)(C)N)c2)c1` [Pilaralisib], the TEAD-luciferase reporter activity (compound concentration: 2 uM) is inactive: -1.41.
